The text below walks through data of PubChem BioAssay AID248 (DTP/NCI, 2004).

This experiment concerns L1210 leukemia ip in BDF1 mice, survival T/C. Kind of experiment: NCI In Vivo Anticancer Drug Screen. Data for tumor model L1210 Leukemia (intraperitoneal) in B6D2F1 (BDF1) mice. As to conditions: T/C endpoint: mean survival time, higher T/C = longer survival.
The mark [1] stands for this setting: dose: 100.0 mg/kg/injection, schedule: Q04DX003 (ip), vehicle: saline with Tween-80.
Setting [2] is: dose: 200.0 mg/kg/injection, schedule: Q04DX003 (ip), vehicle: saline with Tween-80.
Setting [3] is: dose: 400.0 mg/kg/injection, schedule: Q04DX003 (ip), vehicle: saline with Tween-80.
Setting [4] is: dose: 400.0 mg/kg/injection, schedule: Q04DX002 (ip), vehicle: saline with Tween-80.
The mark [5] stands for this setting: dose: 100.0 mg/kg/injection, schedule: Q01DX009 (ip), vehicle: water.
Setting [6] is: dose: 200.0 mg/kg/injection, schedule: Q01DX001 (ip), vehicle: saline.
Setting [7] is: dose: 400.0 mg/kg/injection, schedule: Q01DX001 (ip), vehicle: saline.
[8] abbreviates: dose: 200.0 mg/kg/injection, schedule: Q01DX009 (ip), vehicle: saline.
Where [9] appears, read: dose: 400.0 mg/kg/injection, schedule: Q04DX003 (ip), vehicle: saline.

The list shows only some results of the screen, not a fair sample: it gathers tests that were run many times, whatever their T/C, doses with no T/C, and many T/C values between a quarter and a half above the control. Other doses and runs of a compound stand elsewhere. T/C: endpoint of the treated group in % of that of the vehicle group. Some doses have a count of surviving animals in place of a T/C: the source holds a T/C of zero for them, seemingly a mark for toxic or unscored doses. Some survivor counts are full or nearly so, which does not show that the dose was tolerated: the source hardly ever lists a survival T/C far under the control, and the zero likely stands for such cases as well. Counts of survivors are from the toxicity check (mostly the fifth day) where no day follows; animals may have died later. Schedules are NCI's codes, read here as Q, the interval in days (D) or hours (H), X, the number of doses. Some doses were run more than once; the values are given in rising order. Some schedules carry Z or #; the key to these is not given. For survival time, the PubChem record calls one and a half times the control and up active, and a quarter to a half above the control has no call in these data; cut-offs in other NCI protocols can differ. Some T/C values are followed by the survivors on the day toxicity was checked, most often the fifth; without a count, all were alive then.

`O=C(O)CC1OCC=C2CN3CCC45C6=CC(=O)C(=O)C([N+](=O)[O-])=C6NC4C1C2CC35` (stereo not drawn): the survivor count is on record as 0 of 4 (dose: 50.0 mg/kg/injection, schedule: Q01DX001 (ip), vehicle: carboxymethylcellulose (CMC)); 0 of 4 (dose: 100.0 mg/kg/injection, schedule: Q01DX001 (ip), vehicle: carboxymethylcellulose (CMC)); 0 of 4 (dose: 200.0 mg/kg/injection, schedule: Q01DX001 (ip), vehicle: carboxymethylcellulose (CMC)).

Turning to `O=C(C(Br)c1ccccc1)C(Br)c1ccccc1` (stereo not drawn), the survivor count is 6 of 6 under setting [1], 0 of 6 under setting [2] and 0 of 6 under setting [3].

`CC1=CCCC(C)C12CCC(C(C)(C)O)C2` (stereo not drawn): the survivor count (dose: 400.0 mg/kg/injection, schedule: Q04DX003 (ip), vehicle: saline sonified) is given as 0 of 6.

With `Cc1c[n+]([O-])ccc1N=NN(C)c1ccccc1C`, the survivor count is 3 of 3 (dose: 100.0 mg/kg/injection, schedule: Q04DX002 (ip), vehicle: saline with Tween-80) and 0 of 3 under setting [4].

Consider `CCCCCCN(CCCCCC)C(C)=O`, for which, where the note is “dose: 400.0 mg/kg/injection, schedule: Q01DX001 (ip), vehicle: other”, the survivor count was 1 of 6.

Take `CCCCCC(=O)N1CCCCC1CC` (stereo not drawn): the survivor count (dose: 400.0 mg/kg/injection, schedule: Q04DX002 (ip), vehicle: Klucel (hydroxypropylcellulose) (HPC)) is 3 of 3.

As for `CC1CN1C(=O)c1cc(C(=O)N2CC2C)cc(C(=O)N2CC2C)c1` (stereo not drawn), the survivor count (dose: 120.0 mg/kg/injection, schedule: Q01DX001 (ip), vehicle: saline) was 3 of 6.

`Cc1ccc(CNC(=S)Nc2ccccc2)cc1`: the survivor count (dose: 12.5 mg/kg/injection, schedule: Q01DX009 (ip), vehicle: Klucel (hydroxypropylcellulose) (HPC)) is listed as 3 of 3; the survivor count (dose: 25.0 mg/kg/injection, schedule: Q01DX009 (ip), vehicle: Klucel (hydroxypropylcellulose) (HPC)) is on record as 3 of 3; the survivor count (dose: 50.0 mg/kg/injection, schedule: Q01DX009 (ip), vehicle: Klucel (hydroxypropylcellulose) (HPC)) is reported as 3 of 3; the survivor count (dose: 100.0 mg/kg/injection, schedule: Q01DX009 (ip), vehicle: Klucel (hydroxypropylcellulose) (HPC)) is reported as 3 of 3; the survivor count (dose: 200.0 mg/kg/injection, schedule: Q01DX009 (ip), vehicle: Klucel (hydroxypropylcellulose) (HPC)) was 3 of 3.

In the case of `COc1cccc2c1C(=O)c1c(O)c3c(c(O)c1C2=O)C[C@@](O)(/C(C)=N/NS(C)(=O)=O)C[C@@H]3OC1CC(N)C(O)C(C)O1` (stereo partly drawn), the T/C was 126 and 135 % of control [5 of 6 alive] (dose: 32.0 mg/kg/injection, schedule: Q01DX009 (ip), vehicle: water); 132 % of control (dose: 32.0 mg/kg/injection, schedule: Q04DX003 (ip), vehicle: water); 135 % of control (dose: 64.0 mg/kg/injection, schedule: Q01DX009 (ip), vehicle: water); 143 % of control (dose: 64.0 mg/kg/injection, schedule: Q04DX003 (ip), vehicle: water). Moreover, the survivor count was 5 of 6 under setting [5] and 6 of 6 (dose: 128.0 mg/kg/injection, schedule: Q01DX009 (ip), vehicle: water).

As to `CCN=C(c1ccc(NC(=O)c2ccc(C(=O)Nc3ccc(C(=NCC)N(CC)C(=O)NC)cc3)cc2)cc1)N(CC)C(=O)NC`, the survivor count runs as follows: (dose: 25.0 mg/kg/injection, schedule: Q01DX015 (ip), vehicle: methylcellulose (MC)) 1 of 6; (dose: 50.0 mg/kg/injection, schedule: Q01DX015 (ip), vehicle: methylcellulose (MC)) 0 of 6.

Take `CC(C)=CC1C(C(=O)OC2CCN(C)CC2)C1(C)C` (stereo not drawn): the survivor count runs as follows: under setting [6], 0 of 6; under setting [7], 0 of 6.

As for `O=C(O)/C=C/Sc1ccc(Cl)cc1`, the survivor count under setting [4] is reported as 2 of 3.

As for `CSc1sc2ccccc2[n+]1C`, the T/C (dose: 100.0 mg/kg/injection, schedule: Q01DX009 (ip), vehicle: saline) was 127 and 128 % of control. Further, the survivor count is 0 of 6 and 3 of 6 under setting [8]; 1 of 6 under setting [9].

Turning to `O=C(O)c1cccc(OCc2ccccc2)c1`, the survivor count (dose: 400.0 mg/kg/injection, schedule: Q01DX009 (ip), vehicle: Klucel (hydroxypropylcellulose) (HPC)) was 2 of 6.

With `O=N[O-].O=N[O-].[Co].[NH-]CCN(CC[NH-])CC[NH-]`, the survivor count is 0 of 4 (dose: 100.0 mg/kg/injection, schedule: Q01DX001 (ip), vehicle: saline); 0 of 4 under setting [6]; 0 of 4 under setting [7].

As to `NC(=O)c1ccc[n+](Cc2c(Cl)cccc2Cl)c1`, the survivor count (dose: 12.5 mg/kg/injection, schedule: Q01DX009 (ip), vehicle: saline) is reported as 3 of 6; the survivor count (dose: 25.0 mg/kg/injection, schedule: Q01DX009 (ip), vehicle: saline) is 0 of 6; the survivor count (dose: 50.0 mg/kg/injection, schedule: Q01DX009 (ip), vehicle: saline) is given as 0 of 6.

Turning to `O=C1C=CC(=O)c2c(O)c(CBr)c(CBr)c(O)c21`, the survivor count (dose: 50.0 mg/kg/injection, schedule: Q01DX009 (ip), vehicle: water) is listed as 2 of 6; the survivor count under setting [5] was 3 of 6; the survivor count (dose: 200.0 mg/kg/injection, schedule: Q01DX009 (ip), vehicle: water) is 1 of 6; the survivor count (dose: 400.0 mg/kg/injection, schedule: Q01DX009 (ip), vehicle: water) is listed as 0 of 6.

On to `O=C1NCCc2c1[nH]c1ccccc21`, for which, under setting [9], the survivor count is reported as 1 of 6.

`NC(N)=NN=C(c1ccc(F)cc1)c1ccc(F)cc1`: the survivor count by setting is: (dose: 16.0 mg/kg/injection, schedule: Q01DX Z (oral), vehicle: carboxymethylcellulose (CMC)) 0 of 6; (dose: 32.0 mg/kg/injection, schedule: Q01DX Z (oral), vehicle: carboxymethylcellulose (CMC)) 1 of 6; (dose: 40.0 mg/kg/injection, schedule: Q01DX001 (ip), vehicle: carboxymethylcellulose (CMC)) 2 of 6. Also, for the setting “dose: 20.0 mg/kg/injection, schedule: Q01DX001 (ip), vehicle: carboxymethylcellulose (CMC)”, the T/C was 125 % of control.

Regarding `N#CC1(C#N)OC(C#N)(C#N)c2ccccc21`, the survivor count is listed as 0 of 3 (dose: 100.0 mg/kg/injection, schedule: Q01DX001 (ip), vehicle: saline with Tween-80); 0 of 3 (dose: 200.0 mg/kg/injection, schedule: Q01DX001 (ip), vehicle: saline with Tween-80); 0 of 3 (dose: 400.0 mg/kg/injection, schedule: Q01DX001 (ip), vehicle: saline with Tween-80).

For `Cc1ccc(S(=O)(=O)CCCl)cc1`, under “dose: 400.0 mg/kg/injection, schedule: Q04DX003 (ip), vehicle: Klucel (hydroxypropylcellulose) (HPC)”, the survivor count is recorded as 1 of 6.

In the case of `O=C(O)CCC(=O)O.[Ag]`, the survivor count is on record as 6 of 6 (dose: 6.25 mg/kg/injection, schedule: Q01DX009 (ip), vehicle: acetone); 6 of 6 (dose: 12.5 mg/kg/injection, schedule: Q01DX009 (ip), vehicle: acetone); 2 of 6 (dose: 50.0 mg/kg/injection, schedule: Q04DX003 (ip), vehicle: saline with Tween-80); 5 of 6 under setting [1]; 0 of 6 under setting [2]; 1 of 6 under setting [3].

For the molecule `N#[N+]c1nc2ncnc(N)c2[nH]1`, the survivor count is 3 of 8 (dose: 50.0 mg/kg/injection, schedule: Q01DX Z (ip), vehicle: saline) and 1 of 8 (dose: 100.0 mg/kg/injection, schedule: Q01DX Z (ip), vehicle: saline).

Take `NCCOCCOCCN`: under setting [8], the survivor count is 0 of 3.

For `CC(C)=NNC(N)=O`, the survivor count (dose: 100.0 mg/kg/injection, schedule: Q04DX002 (ip), vehicle: saline) was 1 of 3 and 2 of 3; the survivor count (dose: 200.0 mg/kg/injection, schedule: Q04DX002 (ip), vehicle: saline) was 0 of 3; the survivor count (dose: 400.0 mg/kg/injection, schedule: Q04DX002 (ip), vehicle: saline) is reported as 0 of 3.
